{"source": "PubChem BioAssay AID504793 (Drosophila RNAi Screening Center, 2011)", "assay": "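Whole-genome screen for parts of the DNA damage checkpoint at G2/M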 (primary screen)", "system": "Drosophila S2R+ cells", "reagents": "long dsRNA against Drosophila genes, about 0.25 µg dsRNA per well", "timing": "4 days of dsRNA, then 4 hours of drug before read-out", "conditions": "doxorubicin 0.5 µM for 4 hours to cause double-strand breaks, in cells also given a low, harmless dose of dsRNA against nbs to sensitise the assay", "read-out": "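Per-well count of mitotic cells stained for phospho-histone H3 after doxorubicin exposure, used as mitotic index; counts are raw and not normalised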", "scale": "mitotic cells: higher = more cells in mitosis, weaker G2 arrest", "hit rule": "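a call needs confirmation in secondary tests, with other dsRNAs and a check of mitotic timing without damage, not just a high primary count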", "meaning of the calls": "active = confirmed in follow-up tests; inactive = not confirmed", "note": "In all, the deposit lists about 23,000 reagents; shown is a random part of those with a known target gene and a result. Of all reagents, 62 (0.27%) are marked active. 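Calls come from follow-up tests whose scores are not deposited, so confirmed genes may have low counts here; counts are not normalised per plate.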 Raw values vary from plate to plate and are shown uncorrected. A number with no mark means an inactive call. The numbers tell different reagents against one gene apart. Names joined by + are all predicted targets of the reagent."}
{"target gene": "Rim2 (Replication in mitochondria 2)", "reagent": 1, "mitotic cells, replicate 1": 4}
{"target gene": "Rim2 (Replication in mitochondria 2)", "reagent": 2, "mitotic cells, replicate 1": 1}
{"target gene": "Caf1-180 (Chromatin assembly factor 1, p180 subunit)", "reagent": 1, "mitotic cells, replicate 1": 6}
{"target gene": "Caf1-180 (Chromatin assembly factor 1, p180 subunit)", "reagent": 2, "mitotic cells, replicate 1": 5}

Next part, starting with the last 2 of the part before.
{"target gene": "Caf1-180 (Chromatin assembly factor 1, p180 subunit)", "reagent": 1, "mitotic cells, replicate 1": 6}
{"target gene": "Caf1-180 (Chromatin assembly factor 1, p180 subunit)", "reagent": 2, "mitotic cells, replicate 1": 5}
{"target gene": "CG31775 + CG42586", "reagent": 1, "mitotic cells, replicate 1": 2}
{"target gene": "Lip1 (Lipase 1)", "reagent": 1, "mitotic cells, replicate 1": 4}
{"target gene": "drd (drop dead)", "reagent": 1, "mitotic cells, replicate 1": 7}
{"target gene": "drd (drop dead)", "reagent": 2, "mitotic cells, replicate 1": 3}
{"target gene": "drd (drop dead)", "reagent": 3, "mitotic cells, replicate 1": 5}
{"target gene": "CG3744", "reagent": 1, "mitotic cells, replicate 1": 18}
{"target gene": "CG3744", "reagent": 2, "mitotic cells, replicate 1": 5}
{"target gene": "Ccp84Ag", "reagent": 1, "mitotic cells, replicate 1": 6}
{"target gene": "Ccp84Ag", "reagent": 2, "mitotic cells, replicate 1": 7}
{"target gene": "Ccp84Ag", "reagent": 3, "mitotic cells, replicate 1": 2}
